Experimental data: PubChem BioAssay AID256 (DTP/NCI, 2004)
The list does not hold the whole screen: it is rich in T/C values a quarter to a half above the control, in often repeated tests (any T/C) and in doses without a T/C. Further doses and runs are listed elsewhere. T/C is the treated group as % of the vehicle group. Some entries give survivors of the animals treated and no T/C: the source holds a T/C of zero for them, seemingly a mark for toxic or unscored doses. Counts of survivors are from the toxicity check (mostly the fifth day) where no day follows; animals may have died later. Schedule codes are those of the source, read here as Q, the interval in days (D) or hours (H), X, the number of doses. Some entries hold several experiments; the results are listed from low to high. Counts like (3×) count equal records among those shown. Some doses without a T/C left all or most animals alive at the check, yet need not have been tolerated: the source hardly ever lists a survival T/C far under the control, and the zero likely stands for such cases as well. For survival time, this PubChem deposit counts one and a half times the control or more as active, and values a quarter to a half above the control carry no call in these data; other NCI protocols may use other cut-offs. Some T/C values are followed by the survivors on the day toxicity was checked, most often the fifth; where none is given, no animal had died by that day.

System: CD2F1 mice, L1210 leukemia ip, survival T/C
Test: NCI In Vivo Anticancer Drug Screen. Data for tumor model L1210 Leukemia (intraperitoneal) in CD2F1 (CDF1) mice
Conditions: higher T/C = longer survival
In short: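 Ratio T/C, where T is the treated-group value and C the vehicle-dosed control value, from mice implanted with a transplantable tumor.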

[1] = T/C endpoint: mean survival time, dose: 600.0 mg/kg/injection, schedule: Q01DX001 (ip), vehicle: saline
[2] = T/C endpoint: mean survival time, dose: 800.0 mg/kg/injection, schedule: Q01DX001 (ip), vehicle: saline

With `O=P1(N(CCCl)CCCl)NCCCO1` (stereo not given) the T/C (T/C endpoint: mean survival time, dose: 500.0 mg/kg/injection, schedule: Q01DX001 (ip), vehicle: saline, evaluated on day 30) was 102 [4 of 6 alive], 155 [5 of 6 alive], 240 % of control, the T/C (T/C endpoint: mean survival time, dose: 500.0 mg/kg/injection, schedule: Q01DX001 (ip), vehicle: saline, evaluated on day 35) was 201 and 211 % of control [5 of 6 alive] and the T/C (T/C endpoint: mean survival time, dose: 500.0 mg/kg/injection, schedule: Q01DX001 (ip), vehicle: saline, evaluated on day 40) was 223 % of control. The T/C (T/C endpoint: mean survival time, dose: 500.0 mg/kg/injection, schedule: Q01DX001 (ip), vehicle: saline, evaluated on day 45) was 94 [5 of 6 alive] and 474 % of control, the T/C (T/C endpoint: mean survival time, dose: 500.0 mg/kg/injection, schedule: Q01DX001 (ip), vehicle: saline, evaluated on day 60) was 227 % of control [5 of 6 alive] and the survivor count (T/C endpoint: mean survival time, dose: 500.0 mg/kg/injection, schedule: Q01DX001 (ip), vehicle: saline) was 1 of 6, 2 of 6 (2×), 3 of 6 (4×). For the same compound, the T/C (T/C endpoint: mean survival time, dose: 500.0 mg/kg/injection, schedule: Q01DX001 (ip), vehicle: water, evaluated on day 30) was 94 [4 of 6 alive], 99, 100 [4 of 6 alive], 104 [4 of 6 alive], 105 [4 of 6 alive], 112 [4 of 6 alive], 116, 127, 138, 149 [5 of 6 alive], 155, 159, 168, 168 [4 of 6 alive], 170 [4 of 6 alive], 179 [5 of 6 alive], 195 [4 of 6 alive], 205 [4 of 6 alive], 218 [5 of 6 alive], 219, 221 [5 of 6 alive], 238, 250, 291, 327 % of control, the T/C (T/C endpoint: mean survival time, dose: 500.0 mg/kg/injection, schedule: Q01DX001 (ip), vehicle: water, evaluated on day 35) was 91 [5 of 6 alive] and 321 % of control [5 of 6 alive] and the T/C (T/C endpoint: mean survival time, dose: 500.0 mg/kg/injection, schedule: Q01DX001 (ip), vehicle: water, evaluated on day 40) was 406 % of control [4 of 6 alive]. The T/C (T/C endpoint: mean survival time, dose: 500.0 mg/kg/injection, schedule: Q01DX001 (ip), vehicle: water, evaluated on day 45) was 148 % of control [4 of 6 alive], the T/C (T/C endpoint: mean survival time, dose: 500.0 mg/kg/injection, schedule: Q01DX001 (ip), vehicle: water, evaluated on day 60) was 426 % of control [4 of 6 alive] and the survivor count (T/C endpoint: mean survival time, dose: 500.0 mg/kg/injection, schedule: Q01DX001 (ip), vehicle: water) was 0 of 6, 1 of 6, 1 of 3, 2 of 6 (2×), 3 of 6 (2×), 5 of 6 (4×). For the same compound, the T/C [1] was 164 and 180 % of control, the survivor count [1] was 1 of 6 and 5 of 10 and the T/C [2] was 84 % of control. For the same compound, the survivor count [2] was 0 of 10 and 10 of 10 (2×), the survivor count (T/C endpoint: mean survival time, dose: 1000.0 mg/kg/injection, schedule: Q01DX001 (ip), vehicle: saline) was 0 of 6 and the T/C (T/C endpoint: median survival time, dose: 25.0 mg/kg/injection, schedule: Q01DX005 (ip), vehicle: saline) was 130 % of control. The T/C (T/C endpoint: median survival time, dose: 25.0 mg/kg/injection, schedule: Q01DX009 (ip), vehicle: saline) was 139 and 141 % of control, the T/C (T/C endpoint: median survival time, dose: 40.0 mg/kg/injection, schedule: Q01DX005 (ip), vehicle: saline, evaluated on day 30) was 127, 133, 134, 136, 138, 139 (2×), 140, 141 (3×), 144 (4×), 148 (4×), 150, 151, 156, 158, 159, 161 (2×), 166 % of control and the T/C (T/C endpoint: median survival time, dose: 40.0 mg/kg/injection, schedule: Q01DX005 (ip), vehicle: saline, evaluated on day 35) was 144 % of control. For the same compound, the T/C (T/C endpoint: median survival time, dose: 40.0 mg/kg/injection, schedule: Q01DX005 (ip), vehicle: saline, evaluated on day 60) was 148 and 182 % of control, the T/C (T/C endpoint: median survival time, dose: 40.0 mg/kg/injection, schedule: Q01DX009 (ip), vehicle: saline, evaluated on day 30) was 146, 147, 155 (2×), 156 (2×), 160, 161 (3×), 161 [5 of 6 alive], 162, 163, 165, 167, 171, 172 (2×), 175 (2×), 176 (4×), 185, 190, 205 % of control and the T/C (T/C endpoint: median survival time, dose: 40.0 mg/kg/injection, schedule: Q01DX009 (ip), vehicle: saline, evaluated on day 35) was 160 % of control. The T/C (T/C endpoint: median survival time, dose: 40.0 mg/kg/injection, schedule: Q01DX009 (ip), vehicle: saline, evaluated on day 60) was 162 and 166 % of control, the T/C (T/C endpoint: median survival time, dose: 45.0 mg/kg/injection, schedule: Q10HX004 (ip), vehicle: saline) was 136 % of control and the T/C (T/C endpoint: median survival time, dose: 50.0 mg/kg/injection, schedule: Q01DX001 (ip), vehicle: saline, evaluated on day 6) was 126 and 131 % of control. The T/C (T/C endpoint: median survival time, dose: 50.0 mg/kg/injection, schedule: Q01DX001 (ip), vehicle: saline, evaluated on day 11) was 126 and 131 % of control, the T/C (T/C endpoint: median survival time, dose: 50.0 mg/kg/injection, schedule: Q01DX001 (ip), vehicle: saline, evaluated on day 20) was 122 % of control and the T/C (T/C endpoint: median survival time, dose: 50.0 mg/kg/injection, schedule: Q01DX001 (ip), vehicle: saline, evaluated on day 30) was 129 and 133 % of control.
